Results as given in PubChem BioAssay AID2685 (National Center for Advancing Translational Sciences (NCATS), 2010).
Out of some 320,000 compounds screened, about 2,100 (0.66%) were called active. This list was built around the results that the source calls inconclusive (neither active nor inactive); the mix of calls is not that of the screen. Calls come from the whole dose curve; as a rule, active = well fitted inhibition curve with a large enough effect in the signal ratio, with a control signal flat (not every such curve was filed as active); inconclusive = small, poorly fitted or top-dose-only effect, or effect the other way, or a change in a side signal; inactive = flat fitted curve, though single readings scatter; the % refers to the signal ratio. Potencies of inconclusive entries are doubtful fits and often do not repeat.

Experiment: qHTS Assay for Lipid Storage Modulators in Drosophila S3 Cells
Conditions: BODIPY lipid droplet fluorescence, 18-24 h, cells fed with added oleic acid; lipid storage change, negative = inhibition: at 46.1 µM (top of the series) unless noted
In short: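 Laser-scanning cytometry quantifies lipid droplet accumulation (500–530 nm total intensity; droplet/cell object ratio) in oleic acid-fed (400 uM added) Drosophila S3 cells treated with a concentration series. 20 uM Triacsin C defined 100% inhibition.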
% is set by controls: 0 for no effect and ±100 for the full control effect; potency is the fitted concentration of half-maximal effect.

| Structure (SMILES) | lipid storage change, negative = inhibition | Potency |
| --- | --- | --- |
| O=C1CN=C(Nc2cccc(C(F)(F)F)c2)N1C1CCCC1 | inconclusive: 23.3% | – |
| C=CCn1c(SCC(=O)/C(C#N)=C(\C)N)nc2sc(C)c(C)c2c1=O | inconclusive: -7.17% | – |
| Cc1csc(=O)n1CC(=O)OC(C)C(=O)Nc1ccc(F)c(F)c1F (stereo not given) | inconclusive | – |
| CC(C)n1nccc1N(Cc1ccc(C#N)cc1)S(=O)(=O)c1ccccc1 | inconclusive: -12.6% | – |
| CCOC(=O)CC1C(=O)NCCN1S(=O)(=O)c1cccc(C(F)(F)F)c1 (stereo not given) | inconclusive: 111% | – |
| CCc1nnc(NC(=O)c2cccc(C(=O)Nc3nnc(CC)s3)n2)s1 | inconclusive: -14.6% | – |
| CC1(C)Cc2ccccc2-c2nnc(-c3ccccc3)n21 | inconclusive: -31.1% | – |
| O=C(O)C1CCCN1C1=NS(=O)(=O)c2ccccc21 (stereo not given) | inconclusive: -6.79% | – |
| CCN1CCC(=NNC(=O)c2ccco2)CC1 | – | inconclusive: 0.206 µM [activator, full curve, poor fit] |
| CCCCNC(=O)C1c2ccccc2Oc2ccccc21 | inconclusive: 4.67% | – |
| O=C(CSc1nc(-c2ccccc2F)nc2nc[nH]c12)Nc1c(Cl)cc(Cl)cc1Cl | inconclusive: -43.8% | – |
| CC1=C(C)CC(C(=O)Nc2ccc(C(N)=O)cc2)C(C(=O)O)C1 (stereo not given) | – | inconclusive: 0.0184 µM [falling, single point] |
| CC1(C)CC2CC(C)(CN2C(=O)CN2C(=O)c3ccccc3C2=O)C1 (stereo not given) | – | inconclusive: 0.411 µM [activator, partial curve, poor fit] |
| NC(=O)C1(NC(=O)[C@@H]2CC3(CC(c4cccc(NC(=O)[C@@H]5CCC(=O)N5)c4)=NO3)CN2C(=O)Cc2ccc(C(F)(F)F)cc2)CC1 (stereo not given in full) | inconclusive: 2.25% | – |
| O=S(=O)(Nc1cccc(S(=O)(=O)N2CCOCC2)c1)c1ccc(Cl)s1 | – | inconclusive: 0.116 µM [falling, full curve, poor fit] |
| CCOc1cc(CNCCc2ccc(S(N)(=O)=O)cc2)ccc1OCc1ccc(Cl)cc1 | – | inconclusive: 32.6 µM [cytotoxic, single point] |
| Cc1cccn2c(=O)c3cc(C(=O)NCCc4ccccc4)c(=N)n(CC4CCCO4)c3nc12 (stereo not given) | – | inconclusive: 0.164 µM [falling, full curve, poor fit] |
| CCOCCn1c(SCC)nc2c1c(=O)[nH]c(=O)n2C | inconclusive: -10.6% | – |
| Cc1cccc(CCN2C(N(C)C)=NC[C@@H]2CC(C)C)c1 | – | inconclusive: 29.1 µM [activator, single point] |
| Fc1ccccc1-c1n[nH]c(=S)n1/N=C/c1c[nH]c2ccccc12 | – | inconclusive: 4.11 µM [activator, partial curve] |
| O=C1CS/C(=N/N=C/c2ccccc2OS(=O)(=O)c2ccccc2)N1 | inconclusive: -7.74% | – |
| CCCCNC(=O)CCn1c(=O)c2cccn2c2ccc(F)cc21 | inactive | – |
| COC(=O)c1ccc(-n2cnc3ccccc32)nc1 | inconclusive: 10.7% | – |
| O=c1[nH]c(=S)[nH]cc1Oc1ccc(Cl)cc1Cl | inconclusive: -107% | – |
| COc1ccc(-c2cc([C@H]3[C@H]4C=CC[C@@H](C)[C@@H]4C(=O)N3Cc3ccccc3)ccc2F)cc1 | inconclusive: -2.67% | – |

Some of these compounds in order of SMILES length, descending:

| Structure (SMILES) | lipid storage change, negative = inhibition | Potency |
| --- | --- | --- |
| COc1ccc(-c2cc([C@H]3[C@H]4C=CC[C@@H](C)[C@@H]4C(=O)N3Cc3ccccc3)ccc2F)cc1 | inconclusive: -2.67% | – |
| CCOc1cc(CNCCc2ccc(S(N)(=O)=O)cc2)ccc1OCc1ccc(Cl)cc1 | – | inconclusive: 32.6 µM [cytotoxic, single point] |
| CCc1nnc(NC(=O)c2cccc(C(=O)Nc3nnc(CC)s3)n2)s1 | inconclusive: -14.6% | – |
| CC1(C)Cc2ccccc2-c2nnc(-c3ccccc3)n21 | inconclusive: -31.1% | – |

More compounds.

| Structure (SMILES) | lipid storage change, negative = inhibition | Potency |
| --- | --- | --- |
| CCOC(=O)C1(Cc2ccccc2C)CCCN(C(=O)c2cc(CC)nn2C)C1 (stereo not given) | inconclusive: 22.2% | – |
| COc1ccc(C(C(=O)NC2CCCC2)N(C(=O)c2ccco2)c2cccc(C(C)=O)c2)cc1OC (stereo not given) | inconclusive: 49.5% | – |
| CCC(=O)C1CCCN(C(=O)c2ccc(OC)c(OC3CCN(C(C)=O)CC3)c2)C1 (stereo not given) | inconclusive: -3.94% | – |
| C=CCN(CC=C)C(=O)C1CCN(S(=O)(=O)c2ccc(N3CCCC3=O)cc2)CC1 | inconclusive: 52.9% | – |
| O=[N+]([O-])c1cccc(NC(=S)N2CCCC2)c1 | inconclusive: 77% | – |
| CCCCNC(=O)c1ccccc1C(=O)NCCCC | inconclusive: 2.3% | – |
| CCc1cccc(OCC(=O)Nc2ccc(S(=O)(=O)N3CCCC3)cc2)c1 | – | inconclusive: 14.6 µM [falling, single point] |
| CCn1c(=O)c(C(=O)NCc2ccc(Cl)cc2)c(O)c2ccccc21 | inconclusive: 25.2% | – |
| Cc1cc(C)c2c(=O)n(CC(=O)NCCCN3CCOCC3)sc2n1 | – | inconclusive: 29.1 µM [cytotoxic, single point] |
| COC(=O)CNC(=O)c1cc(-c2ccncc2)nc2ccc(C)cc12 | inconclusive: 57.5% | – |
| COc1ccc(CCNC(=O)C2CCCN(S(=O)(=O)c3cnc[nH]3)C2)cc1OC (stereo not given) | inconclusive: -18.1% | – |
| Cc1ccc(C2=Nc3ccccc3N(C(=O)c3ccccc3)C(C)C2)cc1 (stereo not given) | inconclusive: 31.3% | – |
| COc1ccc(COC(=O)C2CC(=O)N(Cc3ccccc3)C2)cc1 (stereo not given) | inconclusive: -1.17% | – |
| O=C(NC1CCCCC1)N(CCN1CCOCC1)Cc1cc2cc3c(cc2[nH]c1=O)OCCO3 | inconclusive: 50.3% | – |
| Clc1ccc(-c2nnc(Sc3nc4ccccc4o3)c3ccccc23)cc1 | inactive | – |
| CCCOc1ccc(CC(CC(=O)O)(C(=O)O)C(=O)O)cc1 | inconclusive: -3.47% | – |
| O=C(O)CCC(=O)Nc1ccc(Cc2ccc(NC(=O)CCC(=O)O)cc2)cc1 | inconclusive: 8.35% | – |
| COc1ccc(NC(=O)CCNS(=O)(=O)c2cccc3nonc23)c(OC)c1 | – | inconclusive: 0.461 µM [falling, full curve] |
| C/C(=N\NC(=O)c1nnn(-c2nonc2N)c1-c1ccc2c(c1)OCO2)c1cccs1 | – | inconclusive: 29.1 µM [rising, single point] |
| Cc1cc(C)cc(NC(=O)CN2CCc3cc4c(cc3C2C)OCCCO4)c1 (stereo not given) | inconclusive: -9.68% | – |
| Cc1ccc2nc(/C(C#N)=C/c3ccccc3C(=O)O)[nH]c2c1 | inactive | – |
| CCC(=O)NC(=S)Nc1ccc(S(=O)(=O)NC2CCCCC2)cc1 | – | inconclusive: 0.58 µM [activator, full curve, poor fit] |
| O=C1CC(c2cccc(Cl)c2)Cc2nc(N3CCN(c4ccccc4)CC3)ncc21 (stereo not given) | – | inconclusive: 1.84 µM [rising, partial curve, poor fit] |
| O=C(CSc1nc(NS(=O)(=O)c2ccccc2)cc(=O)[nH]1)Nc1ccccc1Cl | inconclusive: -31.2% | – |
| CCCCn1c(N)c(N(CCOC)C(=O)C2CCN(C(=O)c3ccc(F)cc3)CC2)c(=O)[nH]c1=O | – | inconclusive: 29.1 µM [falling, single point] |

| Structure (SMILES) | lipid storage change, negative = inhibition | Potency |
| --- | --- | --- |
| Cn1ccc(NC(=O)Nc2ccc(Cl)cc2Cl)n1 | – | inconclusive: 1.3 µM [activator, full curve] |
| Cc1ccc2c(c1)c1c3n2CCN(C=O)C3CCC1 (stereo not given) | inconclusive: 20.7% | – |
| COc1ccc(S(=O)(=O)N2CCc3ccccc32)cc1C(=O)N1CCN(C=O)CC1 | inconclusive: 12.7% | – |
| CCCCNC(=O)O[C@@H]1C[C@H]2CCCC(=O)N3CC[C@@H](C1)[C@@H]23 | inconclusive: 25.4% | – |
| CCOC(=O)/C=C1\SCC(=O)N1CC(=O)NC(C)c1ccccc1 (stereo not given) | inconclusive: -2.71% | – |
| Cn1c(=O)[nH]c(=O)c2c1nc(N1CCCCCC1)n2CCCSc1nc2ccccc2o1 | – | inconclusive: 29.1 µM [falling, single point] |
| O=c1nc(-c2ccccc2)n(-c2ccc(Cl)cc2)[nH]1 | – | inconclusive: 6.51 µM [falling, single point] |
| Cc1ccc2nsnc2c1NC(=O)c1ccc([N+](=O)[O-])cc1 | inconclusive: 14.7% | – |
| COC(=O)[C@@]1(Cc2ccc(OC)cc2)[C@H]2c3cc(C(=O)N4CCCC4)n(CCSCCO)c3C[C@H]2CN1C(=O)c1ccccc1 | inactive | – |
| COC(=O)c1nn(-c2ccc(OC)cc2)c(=O)c2c(N)sc(C)c12 | inconclusive: 31.1% | – |
| COc1ccc(S(=O)(=O)N2CCC(C(=O)N[C@H](C(=O)NCc3ccncc3)C(C)C)CC2)cc1 | inconclusive: -17.6% | – |
| COc1ccc(N2C(=O)CC(n3cnc4ccccc43)C2=O)cc1 (stereo not given) | inconclusive: 5.63% | – |
| Fc1ccccc1-c1csc(=Nc2cccnc2)n1CCCn1ccnc1 | inconclusive: -25% | – |
| O=C(NNS(=O)(=O)c1cc(Cl)cc(Cl)c1)c1sccc1-n1cccc1 | inconclusive: 41% | – |
| COc1ccc(/C=N/N=C2/NC(=O)C(CC(=O)O)S2)cc1OS(=O)(=O)c1ccccc1 (stereo not given) | inconclusive: -17.1% [at 9.22 µM] | – |
| COC(=O)[C@H](CCSC)NC(=O)Nc1ccc(OC)cc1OC | inconclusive: -155% | – |
| COc1ccc(CNC(=O)CS(=O)CC(=O)O)cc1OC (stereo not given) | inconclusive: -1.81% | – |
| O=C(CCC(=O)c1ccc(F)cc1)Nc1cccnc1 | inconclusive: 5.59% | – |
| O=C(NCc1ccccn1)C1CCCN(S(=O)(=O)c2cccc3nsnc23)C1 (stereo not given) | – | inconclusive: 0.0146 µM [activator, full curve, poor fit] |
| COc1cc(/C=N/NC(=O)c2ccc(C)nc2)cc([N+](=O)[O-])c1O | inconclusive: -25.6% | – |
| O=C(CSc1ccccc1)NC1CCCCCC1 | inconclusive: -25.4% | – |
| O=C1C=C(NCCOC23CC4CC(CC(C4)C2)C3)C2(CCCCC2)O1 | – | inconclusive: 29.1 µM [falling, single point] |
| COC(=O)c1cc(C)sc1NC(=O)CCc1ccccc1 | – | inconclusive: 29.1 µM [falling, single point] |
| O=C(O)c1cccc(-n2cccc2/C=N/O)c1 | inconclusive: -1.68% | – |
| CNc1ccccc1C(C)(C)c1cc(-c2cccc([N+](=O)[O-])c2)no1 | inconclusive: 25.9% | – |
